Reference: PubChem BioAssay AID493014 (National Center for Advancing Translational Sciences (NCATS), 2011)
The list shows a part of the results. Further columns of the screen follow, without active or inactive calls. The list favours compounds with an active or inconclusive main result. Potencies come from curve fits of mixed quality, noted in brackets.

Assay: qHTS Assay to Find Inhibitors of Chronic Active B-Cell Receptor Signaling
Conditions: ABC-DLBCL IkBa-CBG/CBR reporter, luminescence ratio (green luciferase fused to IkBa over red control in TMD8 lymphoma cells), 4 h
Procedure, shortened: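 Concentration-response series (up to 46 uM) were applied to TMD8 dual-reporter cells for 4 h at 37C with doxycycline. Green/red ratio, after filter-overlap correction, defined %Activity; red signal alone was normalised to basal cells and zero luminescence.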

[1] = measured here: CBR red luminescence, cell number
[2] = measured here: IkBa-CBG green luminescence

| Compound | AC50 [1] | AC50 [2] |
| --- | --- | --- |
| CCOC(=O)c1ccc(NC(=O)/C=C/c2cccs2)cc1 | 1.12 µM [falling, full curve] | – |
| O=C(Nc1scc(-c2ccccc2)c1C(=O)O)c1ccccc1Cl | 10 µM [falling, partial curve, poor fit] | – |
| COc1cc(-c2nc3ccc(C)cn3c2Nc2ccc3c(c2)OCCO3)ccc1O | – | 23.1 µM [falling, single point] |
| Cc1cccc(N(C(=O)c2snc(C(N)=O)c2N)C(C(=O)NC2CCCC2)c2ccncc2)c1 (configuration not stated) | 2.82 µM [rising, full curve, poor fit] | – |
| Cc1csc(NC(=O)Cc2ccc(Br)cc2)n1 | 0.316 µM [rising, partial curve, poor fit] | – |
| Cc1ccc(NC(=O)c2ccc(CSc3ccccn3)cc2)c(O)c1 | 6.31 µM [falling, full curve] | 14.1 µM [rising, partial curve, poor fit] |
| Cc1nn(-c2ccccc2)c(C)c1-c1nnc(C(F)(F)F)o1 | 0.794 µM [rising, full curve] | – |
| COC(=O)c1ccc(NC(=O)c2cccc(OC)c2)cc1 | 6.31 µM [falling, partial curve, poor fit] | – |
| C=CCN1C(=O)c2ccc(C(=O)OCC(=O)N(CC)C3CCS(=O)(=O)C3)cc2C1=O (configuration not stated) | 13 µM [falling, partial curve] | – |
| O=C(COC(=O)c1c2c(nc3ccccc13)CCN(Cc1ccccc1)C2)Nc1c(F)cccc1F | 5.17 µM [rising, single point] | – |
| Cc1ccc(C(=O)NCC(=O)Nc2ccc(C)c(S(=O)(=O)Nc3ccc(Cl)cc3)c2)s1 | 35.5 µM [falling, single point] | – |
| CS(=O)(=O)Nc1ccc(C2=NN(C(=O)c3ccco3)C(c3ccc(F)cc3)C2)cc1 (configuration not stated) | 35.5 µM [falling, single point] | – |
| Cc1c(Cl)ccc2sc(N3CCN(C(=O)C4=COCCO4)CC3)nc12 | 4.11 µM [rising, partial curve, poor fit] | – |
| c1coc(CNc2nc3ccccc3n2CCN2CCOCC2)c1 | 20.6 µM [falling, single point] | – |
| O=c1[nH]nc(SCCS(=O)(=O)c2ccc(F)cc2)n1-c1ccccc1C(F)(F)F | 12.6 µM [falling, partial curve] | – |
| CC1NC(=S)N(C2CCCCC2)C1=O (configuration not stated) | 15.8 µM [falling, partial curve] | – |
| COc1cc(N)c(Cl)cc1C(=O)OCC(=O)NC1CCCC1 | 7.08 µM [rising, full curve, poor fit] | – |
| O=C(Nc1ccc2c(c1)OCCO2)C1CCCN1S(=O)(=O)c1ccc(Cl)cc1 (configuration not stated) | 23.1 µM [rising, partial curve, poor fit] | – |
| NCCCCCc1nnc(SCc2ccccc2Cl)o1 | 6.31 µM [falling, full curve, poor fit] | – |
| Oc1ccc(O)c(Cc2nc3ccccc3[nH]2)c1 | 14.1 µM [falling, single point] | – |
| CC(=O)NCCc1nc2cc(NC(=O)c3ccc(F)cc3)ccc2n1C | 11.2 µM [falling, partial curve, poor fit] | – |
| COc1cccc2cc(/C(C)=N/NC(=O)c3ccco3)oc12 | 11.2 µM [falling, partial curve, poor fit] | – |
| Cc1ccc(NC(=O)c2ccc(F)cc2)cc1S(=O)(=O)N1CCCCCC1 | 11.2 µM [falling, single point] | – |
| CS(=O)(=O)c1ccc(C(=O)NCCN2C(=O)S/C(=C\c3cccnc3)C2=O)cc1[N+](=O)[O-] | 17.8 µM [falling, partial curve, poor fit] | – |
| COc1cc(CO)ccc1Oc1nnnn1-c1ccc(C(N)=O)cc1 | 7.31 µM [rising, full curve, poor fit] | – |
| CCOc1ccc(NC(=O)c2c(Nc3ccccc3C)sc(C(=O)c3ccccc3)c2N)cc1 | 31.6 µM [falling, single point] | – |

As entered above.
In AC50 [1], c1coc(CNc2nc3ccccc3n2CCN2CCOCC2)c1 shows 20.6 µM [falling, single point]
In AC50 [1], COC(=O)c1ccc(NC(=O)c2cccc(OC)c2)cc1 shows 6.31 µM [falling, partial curve, poor fit]
